According to the supplement of paper PMC7666118:
Some of the results follow.

Sequences of proteins named here, by UniProt entry; tags and fusion partners are left off. A change or cut given only in a name is not applied to a line headed by its entry.
UniProt Q06609, whole entry: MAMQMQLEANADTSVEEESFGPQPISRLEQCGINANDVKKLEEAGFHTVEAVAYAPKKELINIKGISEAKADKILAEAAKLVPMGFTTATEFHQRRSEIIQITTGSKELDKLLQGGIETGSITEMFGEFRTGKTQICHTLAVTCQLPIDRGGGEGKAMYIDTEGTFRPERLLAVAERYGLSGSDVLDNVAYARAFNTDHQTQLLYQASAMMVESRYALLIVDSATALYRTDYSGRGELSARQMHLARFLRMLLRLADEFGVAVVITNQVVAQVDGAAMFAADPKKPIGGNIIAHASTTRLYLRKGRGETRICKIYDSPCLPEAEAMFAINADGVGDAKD
UniProt P43686, whole entry: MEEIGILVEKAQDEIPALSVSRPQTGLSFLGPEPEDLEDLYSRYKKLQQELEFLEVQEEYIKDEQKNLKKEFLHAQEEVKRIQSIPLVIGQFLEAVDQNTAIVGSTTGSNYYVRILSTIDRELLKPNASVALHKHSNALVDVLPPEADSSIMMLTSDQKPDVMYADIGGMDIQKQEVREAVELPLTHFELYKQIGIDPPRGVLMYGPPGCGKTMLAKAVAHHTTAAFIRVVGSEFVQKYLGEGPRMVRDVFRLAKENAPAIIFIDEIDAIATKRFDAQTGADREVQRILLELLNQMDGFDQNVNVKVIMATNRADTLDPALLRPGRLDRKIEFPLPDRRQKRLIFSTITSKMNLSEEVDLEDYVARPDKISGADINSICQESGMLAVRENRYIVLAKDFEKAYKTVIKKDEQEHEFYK
UniProt P25788: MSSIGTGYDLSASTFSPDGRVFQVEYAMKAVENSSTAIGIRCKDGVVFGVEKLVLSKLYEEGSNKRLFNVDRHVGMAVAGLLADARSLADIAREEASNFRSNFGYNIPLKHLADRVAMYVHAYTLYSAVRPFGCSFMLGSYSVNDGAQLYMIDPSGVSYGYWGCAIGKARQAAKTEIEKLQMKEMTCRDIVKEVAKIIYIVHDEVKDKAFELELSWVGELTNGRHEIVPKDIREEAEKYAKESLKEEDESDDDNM
UniProt P50749: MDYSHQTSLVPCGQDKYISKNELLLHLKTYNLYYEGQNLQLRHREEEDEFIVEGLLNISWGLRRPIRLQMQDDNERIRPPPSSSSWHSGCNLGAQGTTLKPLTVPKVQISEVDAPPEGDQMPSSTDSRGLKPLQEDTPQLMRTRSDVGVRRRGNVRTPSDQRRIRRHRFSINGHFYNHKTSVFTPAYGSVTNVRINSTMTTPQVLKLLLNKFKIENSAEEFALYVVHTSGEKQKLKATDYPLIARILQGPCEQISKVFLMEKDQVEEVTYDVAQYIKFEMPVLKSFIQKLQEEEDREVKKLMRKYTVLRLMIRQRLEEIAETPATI
UniProt O75475: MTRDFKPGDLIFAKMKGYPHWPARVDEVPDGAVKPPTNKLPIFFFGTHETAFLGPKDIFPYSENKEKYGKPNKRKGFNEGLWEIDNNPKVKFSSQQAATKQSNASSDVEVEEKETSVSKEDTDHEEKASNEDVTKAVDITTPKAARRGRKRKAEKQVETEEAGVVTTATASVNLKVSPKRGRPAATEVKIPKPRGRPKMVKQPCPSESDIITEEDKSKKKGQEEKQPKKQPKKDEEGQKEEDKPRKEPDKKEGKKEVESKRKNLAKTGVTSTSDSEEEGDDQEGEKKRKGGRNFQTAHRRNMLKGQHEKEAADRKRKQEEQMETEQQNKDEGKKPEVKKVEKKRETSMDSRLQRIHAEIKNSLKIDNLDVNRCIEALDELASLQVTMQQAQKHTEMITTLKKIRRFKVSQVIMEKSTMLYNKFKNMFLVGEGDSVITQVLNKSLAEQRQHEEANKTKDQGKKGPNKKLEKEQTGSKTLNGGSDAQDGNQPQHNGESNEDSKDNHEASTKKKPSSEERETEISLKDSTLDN
UniProt P20618: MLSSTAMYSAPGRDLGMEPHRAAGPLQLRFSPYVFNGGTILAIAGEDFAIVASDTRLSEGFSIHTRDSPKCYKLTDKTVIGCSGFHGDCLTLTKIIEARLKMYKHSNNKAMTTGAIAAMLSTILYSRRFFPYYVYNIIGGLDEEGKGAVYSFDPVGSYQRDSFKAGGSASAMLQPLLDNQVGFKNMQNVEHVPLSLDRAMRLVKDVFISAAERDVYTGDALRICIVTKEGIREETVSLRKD
UniProt P51151: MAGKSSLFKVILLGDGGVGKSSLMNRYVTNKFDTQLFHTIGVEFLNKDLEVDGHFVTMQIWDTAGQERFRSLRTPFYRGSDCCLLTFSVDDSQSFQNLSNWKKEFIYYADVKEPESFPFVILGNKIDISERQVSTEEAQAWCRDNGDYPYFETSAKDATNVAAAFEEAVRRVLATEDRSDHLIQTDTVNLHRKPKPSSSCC
UniProt O75400: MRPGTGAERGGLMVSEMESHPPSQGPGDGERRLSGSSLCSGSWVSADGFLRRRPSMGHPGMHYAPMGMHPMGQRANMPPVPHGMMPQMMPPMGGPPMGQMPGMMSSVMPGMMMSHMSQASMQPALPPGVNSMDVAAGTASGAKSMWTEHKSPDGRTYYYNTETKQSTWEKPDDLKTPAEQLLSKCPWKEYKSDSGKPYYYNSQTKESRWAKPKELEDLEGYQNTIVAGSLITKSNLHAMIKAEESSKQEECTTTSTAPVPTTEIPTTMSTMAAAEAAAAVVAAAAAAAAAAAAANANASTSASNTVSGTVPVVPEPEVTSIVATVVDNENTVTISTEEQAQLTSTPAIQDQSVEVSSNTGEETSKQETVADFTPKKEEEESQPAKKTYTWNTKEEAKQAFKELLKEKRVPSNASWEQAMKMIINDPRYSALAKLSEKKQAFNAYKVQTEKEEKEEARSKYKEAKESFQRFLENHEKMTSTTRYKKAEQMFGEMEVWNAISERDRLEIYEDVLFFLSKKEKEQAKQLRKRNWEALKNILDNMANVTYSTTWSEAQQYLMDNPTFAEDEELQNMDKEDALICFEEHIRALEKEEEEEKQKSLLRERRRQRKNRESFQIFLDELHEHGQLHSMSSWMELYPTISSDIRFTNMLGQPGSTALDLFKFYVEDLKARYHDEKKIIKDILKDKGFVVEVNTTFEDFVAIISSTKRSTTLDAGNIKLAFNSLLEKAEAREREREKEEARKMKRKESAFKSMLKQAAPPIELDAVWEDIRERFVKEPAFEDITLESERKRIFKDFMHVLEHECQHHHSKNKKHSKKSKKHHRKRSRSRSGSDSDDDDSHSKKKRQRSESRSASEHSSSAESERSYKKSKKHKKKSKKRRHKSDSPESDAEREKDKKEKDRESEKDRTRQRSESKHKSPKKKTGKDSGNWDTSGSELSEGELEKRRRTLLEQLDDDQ
UniProt Q9ULZ3, whole entry: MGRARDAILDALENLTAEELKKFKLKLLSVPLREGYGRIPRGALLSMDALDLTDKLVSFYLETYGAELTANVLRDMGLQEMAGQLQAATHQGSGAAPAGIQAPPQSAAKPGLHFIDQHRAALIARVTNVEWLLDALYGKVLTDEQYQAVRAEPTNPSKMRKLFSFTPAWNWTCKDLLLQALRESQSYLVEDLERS
UniProt Q06323: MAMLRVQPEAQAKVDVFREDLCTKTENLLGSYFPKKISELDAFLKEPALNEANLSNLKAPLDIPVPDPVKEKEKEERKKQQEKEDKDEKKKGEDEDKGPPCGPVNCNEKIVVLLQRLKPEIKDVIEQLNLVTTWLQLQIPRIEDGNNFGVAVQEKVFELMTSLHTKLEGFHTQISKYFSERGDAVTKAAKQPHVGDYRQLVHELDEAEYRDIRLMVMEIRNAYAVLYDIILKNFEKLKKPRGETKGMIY
UniProt P28749: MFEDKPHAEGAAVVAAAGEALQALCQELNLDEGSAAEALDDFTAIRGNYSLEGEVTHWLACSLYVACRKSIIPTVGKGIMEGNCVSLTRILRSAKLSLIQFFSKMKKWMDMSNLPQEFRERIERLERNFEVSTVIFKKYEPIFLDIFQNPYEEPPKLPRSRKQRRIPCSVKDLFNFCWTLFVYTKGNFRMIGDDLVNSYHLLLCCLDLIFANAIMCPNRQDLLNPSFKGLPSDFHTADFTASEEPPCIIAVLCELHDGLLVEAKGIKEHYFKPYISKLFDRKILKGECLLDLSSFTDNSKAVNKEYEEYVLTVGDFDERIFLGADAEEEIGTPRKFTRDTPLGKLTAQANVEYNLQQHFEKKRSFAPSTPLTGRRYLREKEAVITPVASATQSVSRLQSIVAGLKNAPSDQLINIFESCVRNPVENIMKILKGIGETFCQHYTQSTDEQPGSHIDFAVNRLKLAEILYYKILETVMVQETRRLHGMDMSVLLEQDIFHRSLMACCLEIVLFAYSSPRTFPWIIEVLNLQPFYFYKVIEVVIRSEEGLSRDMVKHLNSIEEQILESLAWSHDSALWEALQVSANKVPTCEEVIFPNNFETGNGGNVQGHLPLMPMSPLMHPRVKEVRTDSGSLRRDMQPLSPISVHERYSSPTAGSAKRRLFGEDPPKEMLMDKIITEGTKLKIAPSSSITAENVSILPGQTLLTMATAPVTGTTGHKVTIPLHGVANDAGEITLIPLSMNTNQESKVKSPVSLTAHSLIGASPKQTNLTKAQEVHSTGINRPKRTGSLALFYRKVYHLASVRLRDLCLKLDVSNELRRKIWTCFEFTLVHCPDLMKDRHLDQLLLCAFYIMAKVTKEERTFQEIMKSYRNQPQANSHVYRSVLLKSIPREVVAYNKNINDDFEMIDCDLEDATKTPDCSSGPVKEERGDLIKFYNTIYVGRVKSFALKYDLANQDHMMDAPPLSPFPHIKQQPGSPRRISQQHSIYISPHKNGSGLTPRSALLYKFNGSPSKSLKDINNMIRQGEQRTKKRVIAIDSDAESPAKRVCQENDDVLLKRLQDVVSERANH
UniProt Q14558: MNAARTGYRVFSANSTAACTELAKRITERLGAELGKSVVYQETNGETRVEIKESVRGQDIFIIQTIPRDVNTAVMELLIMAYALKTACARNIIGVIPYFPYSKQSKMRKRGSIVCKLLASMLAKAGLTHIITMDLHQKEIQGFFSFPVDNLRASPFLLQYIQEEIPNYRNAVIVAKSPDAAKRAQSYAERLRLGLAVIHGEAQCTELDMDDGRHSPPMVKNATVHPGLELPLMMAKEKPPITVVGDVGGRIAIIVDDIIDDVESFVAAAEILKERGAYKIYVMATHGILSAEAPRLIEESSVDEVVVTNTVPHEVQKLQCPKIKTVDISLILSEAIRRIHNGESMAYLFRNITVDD
UniProt P11234: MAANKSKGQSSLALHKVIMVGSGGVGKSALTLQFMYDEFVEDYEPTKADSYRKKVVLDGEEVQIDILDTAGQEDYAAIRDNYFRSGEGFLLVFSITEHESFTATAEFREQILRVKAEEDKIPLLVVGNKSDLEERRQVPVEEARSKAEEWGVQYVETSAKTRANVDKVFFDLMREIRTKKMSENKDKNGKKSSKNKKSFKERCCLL
UniProt P62191: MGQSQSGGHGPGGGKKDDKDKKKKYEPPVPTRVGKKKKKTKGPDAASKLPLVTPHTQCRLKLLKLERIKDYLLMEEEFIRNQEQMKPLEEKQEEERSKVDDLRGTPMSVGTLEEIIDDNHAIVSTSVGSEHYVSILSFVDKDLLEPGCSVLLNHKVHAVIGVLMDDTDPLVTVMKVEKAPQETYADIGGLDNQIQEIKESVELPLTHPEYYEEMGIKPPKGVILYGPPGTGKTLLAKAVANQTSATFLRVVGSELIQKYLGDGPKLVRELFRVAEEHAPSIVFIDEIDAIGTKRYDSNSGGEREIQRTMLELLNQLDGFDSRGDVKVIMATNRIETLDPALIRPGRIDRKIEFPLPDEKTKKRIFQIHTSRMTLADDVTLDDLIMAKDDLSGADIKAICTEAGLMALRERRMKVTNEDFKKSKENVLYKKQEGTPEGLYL
UniProt Q09028, whole entry: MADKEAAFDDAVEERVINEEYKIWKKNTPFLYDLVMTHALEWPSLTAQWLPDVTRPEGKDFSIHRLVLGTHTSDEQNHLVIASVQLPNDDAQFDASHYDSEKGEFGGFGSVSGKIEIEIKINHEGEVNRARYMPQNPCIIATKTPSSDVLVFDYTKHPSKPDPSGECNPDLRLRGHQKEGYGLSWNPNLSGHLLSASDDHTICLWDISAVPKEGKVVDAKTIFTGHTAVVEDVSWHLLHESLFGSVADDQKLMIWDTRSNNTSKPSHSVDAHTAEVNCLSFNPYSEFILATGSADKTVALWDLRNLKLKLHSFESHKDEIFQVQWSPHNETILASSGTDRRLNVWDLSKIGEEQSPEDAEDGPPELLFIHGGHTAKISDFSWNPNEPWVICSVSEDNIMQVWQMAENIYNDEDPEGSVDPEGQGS
UniProt Q96C36: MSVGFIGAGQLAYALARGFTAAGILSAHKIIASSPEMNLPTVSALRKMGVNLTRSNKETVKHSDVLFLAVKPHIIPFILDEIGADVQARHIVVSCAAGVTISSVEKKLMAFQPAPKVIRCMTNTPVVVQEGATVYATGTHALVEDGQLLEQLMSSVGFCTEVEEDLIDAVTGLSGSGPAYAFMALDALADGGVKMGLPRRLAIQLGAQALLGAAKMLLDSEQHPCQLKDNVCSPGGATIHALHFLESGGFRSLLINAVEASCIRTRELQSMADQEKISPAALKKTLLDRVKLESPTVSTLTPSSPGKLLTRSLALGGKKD

compound: COc1ccc(Cn2ccc3ccc(C(=O)NO)cc32)cc1; assay: dose-dependent thermal stabilisation call (2D-TPP, DLPTP, 10% FDR) (binary (1 = stabilised)); higher = stabilised by the compound; details: system: HL-60 intact cells; concentration range 0.04-10 µM

Target	dose-dependent thermal stabilisation call
RAD51 (UniProt Q06609)	inactive: 0
PROSC (UniProt O94903)	inactive: 0
RANGRF (UniProt Q9HD47)	inactive: 0
PSMC4 (UniProt P43686)	inactive: 0
RBM10	inactive: 0
RAE1 (UniProt P78406)	inactive: 0
RAB24 (UniProt Q969Q5)	inactive: 0
PSMB7 (UniProt Q99436)	inactive: 0
PSMA3 (UniProt P25788)	inactive: 0
RAB8B (UniProt Q92930)	inactive: 0
RASSF2 (UniProt P50749)	inactive: 0
PSIP1 (UniProt O75475)	inactive: 0
RAB3IP (UniProt Q96QF0)	inactive: 0
RABGGTA (UniProt Q92696)	inactive: 0
PSMB1 (UniProt P20618)	inactive: 0
RAB9A (UniProt P51151)	inactive: 0
RAB35 (UniProt Q15286)	inactive: 0
PRPF40A (UniProt O75400)	inactive: 0
PYCARD (UniProt Q9ULZ3)	inactive: 0

In another format: results already given.

| Target | dose-dependent thermal stabilisation call |
| --- | --- |
| PSMA3 (UniProt P25788) | inactive: 0 |
| PYCARD (UniProt Q9ULZ3) | inactive: 0 |

(continued)

Target	dose-dependent thermal stabilisation call
PSME1 (UniProt Q06323)	inactive: 0
RAPGEF1 (UniProt Q13905)	inactive: 0
RBL1 (UniProt P28749)	inactive: 0
PRPSAP1 (UniProt Q14558)	inactive: 0
RAD51L1 (UniProt O15315)	inactive: 0
RBM14 (UniProt Q96PK6)	inactive: 0
RALB (UniProt P11234)	inactive: 0
RALA (UniProt P11233)	inactive: 0
PSMC1 (UniProt P62191)	inactive: 0
UniProt Q6UWH2_HUMAN	inactive: 0
PUS7L (UniProt Q9H0K6)	inactive: 0
PSEN1 (UniProt P49768)	inactive: 0
RABGAP1L	inactive: 0
RBBP4 (UniProt Q09028)	inactive: 0
PTER (UniProt Q96BW5)	inactive: 0
RAF1 (UniProt P04049)	inactive: 0
PYCR2 (UniProt Q96C36)	inactive: 0
PYCR1 (UniProt P32322)	inactive: 0
